Experimental data taken from publication PMC4144951.
Results are given in words; binding and its absence hold for the method and conditions named. Some results given as binding are weak or reduced against the parent protein; the word gives no strength.

What was measured:
[1] = target: hen egg white lysozyme (hen) (UniProt P00698); assay: co-aggregation checked by SDS-PAGE; results not shown; DTT-reduced HEWL (0.25 mg/ml) incubated with sHSP as in the chaperone assay; both purified
[2] = target: human recombinant insulin (human) (UniProt P01308); assay: dynamic light scattering; 0.25 mg/ml insulin with sHSP at insulin:sHSP 1:0.2 and 1:0.1, 10 mM DTT, 37°C, 90 min; 50 mM sodium phosphate, 100 mM NaCl, pH 7.5; both purified

binding [1]	binding [2]	Binder
binds		HSPB6 Δ51–60 (protein, UniProt O14558) MEIPVPVQPSWLRRASAPLPGLSAPGRLFDQRFGEGLLEAELAALCPTTLALPVAQVPTDPGHFSVLLDVKHFSPEEIAVKVVGEHVEVHARHEERPDEHGFVAREFHRRYRLPPGVDPAAVTSALSPEGVLSIQAAPASAQAPPPAAAK
binds		HSPB6 Δ61–70 (protein, UniProt O14558) MEIPVPVQPSWLRRASAPLPGLSAPGRLFDQRFGEGLLEAELAALCPTTLAPYYLRAPSVPGHFSVLLDVKHFSPEEIAVKVVGEHVEVHARHEERPDEHGFVAREFHRRYRLPPGVDPAAVTSALSPEGVLSIQAAPASAQAPPPAAAK
binds	binds	HSPB6 Δ31–40 (protein, UniProt O14558) MEIPVPVQPSWLRRASAPLPGLSAPGRLFDELAALCPTTLAPYYLRAPSVALPVAQVPTDPGHFSVLLDVKHFSPEEIAVKVVGEHVEVHARHEERPDEHGFVAREFHRRYRLPPGVDPAAVTSALSPEGVLSIQAAPASAQAPPPAAAK
binds		HSPB6 Δ21–30 (protein, UniProt O14558) MEIPVPVQPSWLRRASAPLPQRFGEGLLEAELAALCPTTLAPYYLRAPSVALPVAQVPTDPGHFSVLLDVKHFSPEEIAVKVVGEHVEVHARHEERPDEHGFVAREFHRRYRLPPGVDPAAVTSALSPEGVLSIQAAPASAQAPPPAAAK
binds		HSPB6 Δ41–50 (protein, UniProt O14558) MEIPVPVQPSWLRRASAPLPGLSAPGRLFDQRFGEGLLEAAPYYLRAPSVALPVAQVPTDPGHFSVLLDVKHFSPEEIAVKVVGEHVEVHARHEERPDEHGFVAREFHRRYRLPPGVDPAAVTSALSPEGVLSIQAAPASAQAPPPAAAK
binds	binds	human HSPB6, wild type, full length (protein, UniProt O14558 1-160) MEIPVPVQPSWLRRASAPLPGLSAPGRLFDQRFGEGLLEAELAALCPTTLAPYYLRAPSVALPVAQVPTDPGHFSVLLDVKHFSPEEIAVKVVGEHVEVHARHEERPDEHGFVAREFHRRYRLPPGVDPAAVTSALSPEGVLSIQAAPASAQAPPPAAAK
binds		HSPB6 Δ11–20 (protein, UniProt O14558) MEIPVPVQPSGLSAPGRLFDQRFGEGLLEAELAALCPTTLAPYYLRAPSVALPVAQVPTDPGHFSVLLDVKHFSPEEIAVKVVGEHVEVHARHEERPDEHGFVAREFHRRYRLPPGVDPAAVTSALSPEGVLSIQAAPASAQAPPPAAAK
binds		HSPB6 ΔN11 (domain or fragment, UniProt O14558 12-160) LRRASAPLPGLSAPGRLFDQRFGEGLLEAELAALCPTTLAPYYLRAPSVALPVAQVPTDPGHFSVLLDVKHFSPEEIAVKVVGEHVEVHARHEERPDEHGFVAREFHRRYRLPPGVDPAAVTSALSPEGVLSIQAAPASAQAPPPAAAK
